For part of these data: Weaker means in comparison with the reference protein, sequence or condition of that experiment.
Assays:
[1] = target: BRCA2 (2XMBP-BRCA2, full length) (Homo sapiens) (UniProt P51587); assay: EMSA; conditions: bound but much weaker than ssDNA or tailed DNA; 1 mM MgCl2, 2 mM CaCl2, 2 mM ATP, 37 C; purified recombinant protein; label: 5'-32P on RJ-Oligo1
RAD52 (Homo sapiens) = RAD52 (Homo sapiens) (UniProt P43351); assay: activity assay; conditions: ssDNA annealing clearly increased; also anneals RPA-ssDNA complexes; 100 nM RAD52, 1 mM MgCl2; purified recombinant protein; protein details: gift from Alex Mazin; label: 5'-32P on RJ-Oligo1
RPA (Homo sapiens) = assay: inhibition of the protein; conditions: purified recombinant protein
RAD51 (Homo sapiens) = RAD51 (Homo sapiens) (UniProt Q06609); assay: activity assay; conditions: purified recombinant protein

Chains of the proteins cited; added tags and fusions are not shown. A change or cut given only in a name is not applied to a line headed by its entry. Chains listed by the source or under a name are the forms on record and can include a tag or linker. Residues count along the entry.
UniProt P51587, whole entry: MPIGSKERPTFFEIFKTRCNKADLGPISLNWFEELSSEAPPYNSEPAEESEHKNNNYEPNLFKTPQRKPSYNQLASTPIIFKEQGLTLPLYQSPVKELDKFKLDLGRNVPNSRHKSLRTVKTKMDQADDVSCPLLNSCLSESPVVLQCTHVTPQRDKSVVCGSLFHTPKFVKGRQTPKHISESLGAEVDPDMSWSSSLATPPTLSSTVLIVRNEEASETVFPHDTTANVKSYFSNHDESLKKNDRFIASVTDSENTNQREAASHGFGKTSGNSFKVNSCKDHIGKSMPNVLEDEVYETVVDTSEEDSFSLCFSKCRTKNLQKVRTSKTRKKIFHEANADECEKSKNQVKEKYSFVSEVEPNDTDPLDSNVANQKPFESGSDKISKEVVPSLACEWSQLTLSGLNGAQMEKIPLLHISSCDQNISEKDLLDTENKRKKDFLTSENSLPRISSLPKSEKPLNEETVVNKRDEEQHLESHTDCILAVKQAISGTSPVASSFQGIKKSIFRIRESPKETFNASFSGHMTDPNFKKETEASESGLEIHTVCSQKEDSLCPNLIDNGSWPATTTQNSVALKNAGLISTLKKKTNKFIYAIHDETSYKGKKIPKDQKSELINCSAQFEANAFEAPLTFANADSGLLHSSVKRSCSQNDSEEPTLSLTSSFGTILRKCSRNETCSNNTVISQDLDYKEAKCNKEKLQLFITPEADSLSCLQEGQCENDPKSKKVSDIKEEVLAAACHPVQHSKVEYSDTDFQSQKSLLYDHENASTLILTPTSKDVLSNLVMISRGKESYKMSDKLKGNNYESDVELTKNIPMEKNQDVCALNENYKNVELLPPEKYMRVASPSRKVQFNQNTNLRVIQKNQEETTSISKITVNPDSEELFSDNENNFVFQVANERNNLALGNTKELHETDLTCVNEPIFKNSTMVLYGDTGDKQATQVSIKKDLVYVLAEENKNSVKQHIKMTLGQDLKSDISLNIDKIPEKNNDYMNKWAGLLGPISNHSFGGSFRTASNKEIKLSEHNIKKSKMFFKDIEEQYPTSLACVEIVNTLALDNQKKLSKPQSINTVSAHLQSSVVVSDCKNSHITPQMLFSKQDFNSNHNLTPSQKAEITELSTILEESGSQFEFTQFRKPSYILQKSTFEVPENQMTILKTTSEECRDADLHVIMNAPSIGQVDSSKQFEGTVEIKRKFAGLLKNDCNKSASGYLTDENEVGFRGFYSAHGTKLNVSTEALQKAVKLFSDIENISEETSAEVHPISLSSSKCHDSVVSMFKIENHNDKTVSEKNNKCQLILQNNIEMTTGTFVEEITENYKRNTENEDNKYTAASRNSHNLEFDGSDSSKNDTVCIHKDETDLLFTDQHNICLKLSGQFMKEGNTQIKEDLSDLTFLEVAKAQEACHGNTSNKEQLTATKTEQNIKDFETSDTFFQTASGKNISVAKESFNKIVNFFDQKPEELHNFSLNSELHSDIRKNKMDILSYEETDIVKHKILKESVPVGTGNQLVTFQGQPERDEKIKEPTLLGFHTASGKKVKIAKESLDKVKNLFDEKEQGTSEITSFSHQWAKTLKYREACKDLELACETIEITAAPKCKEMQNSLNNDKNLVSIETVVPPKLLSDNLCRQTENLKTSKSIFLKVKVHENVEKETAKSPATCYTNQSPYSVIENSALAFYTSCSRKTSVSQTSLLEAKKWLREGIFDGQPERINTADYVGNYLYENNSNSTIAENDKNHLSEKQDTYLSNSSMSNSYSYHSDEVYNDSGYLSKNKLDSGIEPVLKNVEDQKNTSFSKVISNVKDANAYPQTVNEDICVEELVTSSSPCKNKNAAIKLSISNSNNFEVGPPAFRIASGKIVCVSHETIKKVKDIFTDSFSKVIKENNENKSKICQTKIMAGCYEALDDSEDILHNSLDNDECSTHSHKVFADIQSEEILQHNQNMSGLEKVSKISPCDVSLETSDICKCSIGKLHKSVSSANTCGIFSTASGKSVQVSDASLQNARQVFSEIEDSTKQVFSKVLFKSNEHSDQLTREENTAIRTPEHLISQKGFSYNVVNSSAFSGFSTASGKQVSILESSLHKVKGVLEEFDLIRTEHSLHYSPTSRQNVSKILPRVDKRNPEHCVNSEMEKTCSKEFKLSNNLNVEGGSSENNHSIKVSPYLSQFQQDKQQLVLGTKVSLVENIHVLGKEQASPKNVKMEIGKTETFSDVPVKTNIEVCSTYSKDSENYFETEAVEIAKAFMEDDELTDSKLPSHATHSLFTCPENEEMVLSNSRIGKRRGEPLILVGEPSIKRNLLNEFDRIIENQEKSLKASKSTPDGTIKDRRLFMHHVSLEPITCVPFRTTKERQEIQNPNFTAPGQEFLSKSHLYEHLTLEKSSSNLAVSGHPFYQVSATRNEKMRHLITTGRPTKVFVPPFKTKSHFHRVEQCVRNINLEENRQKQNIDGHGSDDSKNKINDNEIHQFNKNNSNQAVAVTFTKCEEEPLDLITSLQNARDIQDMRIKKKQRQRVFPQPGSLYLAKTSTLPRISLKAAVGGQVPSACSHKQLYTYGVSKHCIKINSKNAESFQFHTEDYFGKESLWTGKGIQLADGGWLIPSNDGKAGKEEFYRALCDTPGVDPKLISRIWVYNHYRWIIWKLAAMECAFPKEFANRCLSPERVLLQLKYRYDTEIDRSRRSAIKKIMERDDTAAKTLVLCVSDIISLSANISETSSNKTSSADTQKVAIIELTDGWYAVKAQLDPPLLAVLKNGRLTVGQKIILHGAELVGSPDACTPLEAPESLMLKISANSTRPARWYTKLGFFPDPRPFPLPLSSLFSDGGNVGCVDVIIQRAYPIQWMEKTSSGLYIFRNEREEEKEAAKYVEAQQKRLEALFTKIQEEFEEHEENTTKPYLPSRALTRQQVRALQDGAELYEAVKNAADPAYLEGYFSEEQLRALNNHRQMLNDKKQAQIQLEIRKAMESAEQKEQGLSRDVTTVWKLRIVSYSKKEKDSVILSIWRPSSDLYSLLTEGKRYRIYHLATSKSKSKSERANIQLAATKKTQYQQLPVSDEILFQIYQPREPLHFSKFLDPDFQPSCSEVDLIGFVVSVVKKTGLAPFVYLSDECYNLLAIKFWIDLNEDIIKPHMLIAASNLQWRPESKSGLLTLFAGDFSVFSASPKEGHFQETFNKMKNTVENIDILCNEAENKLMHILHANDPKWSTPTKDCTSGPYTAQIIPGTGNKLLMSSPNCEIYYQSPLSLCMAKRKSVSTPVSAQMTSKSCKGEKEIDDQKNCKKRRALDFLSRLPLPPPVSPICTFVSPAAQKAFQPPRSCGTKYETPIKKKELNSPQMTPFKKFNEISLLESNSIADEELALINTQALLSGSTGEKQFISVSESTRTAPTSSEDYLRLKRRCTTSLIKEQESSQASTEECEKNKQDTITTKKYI
UniProt P43351: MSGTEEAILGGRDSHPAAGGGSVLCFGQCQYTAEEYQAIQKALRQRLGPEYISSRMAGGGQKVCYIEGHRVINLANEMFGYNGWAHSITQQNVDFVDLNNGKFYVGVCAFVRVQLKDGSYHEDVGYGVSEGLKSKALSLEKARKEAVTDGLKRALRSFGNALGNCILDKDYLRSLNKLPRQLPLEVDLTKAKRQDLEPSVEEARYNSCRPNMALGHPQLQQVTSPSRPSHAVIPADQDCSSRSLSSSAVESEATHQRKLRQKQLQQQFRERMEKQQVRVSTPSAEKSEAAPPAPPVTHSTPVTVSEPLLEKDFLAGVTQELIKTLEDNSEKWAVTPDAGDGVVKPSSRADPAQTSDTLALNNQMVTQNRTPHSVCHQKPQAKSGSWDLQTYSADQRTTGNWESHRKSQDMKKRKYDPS
UniProt Q06609, 2-339: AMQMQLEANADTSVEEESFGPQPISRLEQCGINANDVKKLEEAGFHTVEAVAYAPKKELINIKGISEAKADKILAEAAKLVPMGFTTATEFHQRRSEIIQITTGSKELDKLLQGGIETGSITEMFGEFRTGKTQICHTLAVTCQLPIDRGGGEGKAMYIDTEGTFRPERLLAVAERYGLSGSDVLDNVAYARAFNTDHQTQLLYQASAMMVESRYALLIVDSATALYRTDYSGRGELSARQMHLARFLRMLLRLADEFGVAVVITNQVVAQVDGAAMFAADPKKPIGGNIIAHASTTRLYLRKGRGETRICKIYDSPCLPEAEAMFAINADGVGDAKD
RPA (Homo sapiens), one chain, as listed by the source, chain 3 of 3: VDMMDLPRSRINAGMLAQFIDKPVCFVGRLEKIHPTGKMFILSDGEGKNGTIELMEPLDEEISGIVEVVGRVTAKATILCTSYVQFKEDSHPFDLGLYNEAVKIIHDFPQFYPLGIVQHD
RPA (Homo sapiens), one chain, as listed by the source, chain 2 of 3: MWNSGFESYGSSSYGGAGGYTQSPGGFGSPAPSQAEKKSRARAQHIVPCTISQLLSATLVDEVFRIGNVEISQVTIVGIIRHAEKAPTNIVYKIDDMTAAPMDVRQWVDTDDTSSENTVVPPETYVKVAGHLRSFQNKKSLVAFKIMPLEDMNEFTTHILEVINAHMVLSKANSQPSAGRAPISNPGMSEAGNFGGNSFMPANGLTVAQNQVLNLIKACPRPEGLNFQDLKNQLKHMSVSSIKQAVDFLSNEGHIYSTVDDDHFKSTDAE
RPA (Homo sapiens), one chain, as listed by the source, chain 1 of 3: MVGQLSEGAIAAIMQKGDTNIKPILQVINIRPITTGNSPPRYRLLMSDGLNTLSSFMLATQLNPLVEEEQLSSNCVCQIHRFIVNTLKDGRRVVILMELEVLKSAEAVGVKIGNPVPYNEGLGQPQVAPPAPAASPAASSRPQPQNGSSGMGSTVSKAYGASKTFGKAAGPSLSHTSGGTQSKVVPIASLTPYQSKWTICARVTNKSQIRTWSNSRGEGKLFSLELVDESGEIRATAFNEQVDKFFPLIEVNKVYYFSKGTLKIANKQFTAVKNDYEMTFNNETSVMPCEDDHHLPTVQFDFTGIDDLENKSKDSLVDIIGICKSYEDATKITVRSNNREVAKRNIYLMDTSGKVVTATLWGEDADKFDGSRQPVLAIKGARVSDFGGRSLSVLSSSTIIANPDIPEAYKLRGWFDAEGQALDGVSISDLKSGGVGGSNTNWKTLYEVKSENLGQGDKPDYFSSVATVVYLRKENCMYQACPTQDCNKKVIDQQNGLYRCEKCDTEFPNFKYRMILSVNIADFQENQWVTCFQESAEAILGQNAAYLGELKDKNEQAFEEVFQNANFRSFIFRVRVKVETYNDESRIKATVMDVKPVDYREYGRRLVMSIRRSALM

TAATACAAAATAAGTAAATGAATAAACAGAGAAAATAAAG (double strand) [dsDNA (RJ-Oligo1/RJ-Oligo2)]
binding result [1]: binds more weakly

TAATACAAAATAAGTAAATGAATAAACAGAGAAAATAAAG / CTGCTTTATCAAGATAATTTTTCGACTCATCAGAAATATCCGTTTCCTATATTTATTCCTATTATGTTTTATTCATTTACTTATTCTTTATGTTCATTTTTTATATCCTTTACTTTATTTTCTCTGTTTATTCATTTACTTATTTTGTATTATCCTTATCTTATTTA [RJ-Oligo1 + RJ-167-mer annealing pair]
activity on this sequence (RAD52 (Homo sapiens)): active
activity on this sequence (RPA (Homo sapiens); RPA (100 nM) completely blocks spontaneous annealing, label: 5'-32P on RJ-Oligo1): active

ATTTATTCTATTCCCTTTATTTTCTCTGTTTATTCATTTACTTATTTTGTATTAATTTCCTATATTTTTTACTTGTATTTCTTATTCATTTACTTATTTTGTATTATCCTTATTTATATCCTTTCTGCTTTATCAAGATAATTTTTCGACTCATCAGAAATATCCG / CGGATATTTCTGATGAGTCGAAAAATTATCTTGATAAAGCAG [5' tailed DNA (RJ-5'TAIL-167-mer/RJ-PHIX-42-1)]
activity on this sequence (RAD51 (Homo sapiens); DNA strand exchange on RPA-coated 5' tail, stimulated by BRCA2 like 3' tail, label: 5'-32P on 167-mer (EMSA)): active

CTGCTTTATCAAGATAATTTTTCGACTCATCAGAAATATCCGTTTCCTATATTTATTCCTATTATGTTTTATTCATTTACTTATTCTTTATGTTCATTTTTTATATCCTTTACTTTATTTTCTCTGTTTATTCATTTACTTATTTTGTATTATCCTTATCTTATTTA [RJ-167-mer ssDNA]
activity on this sequence (RAD51 (Homo sapiens); DNA strand exchange on RPA-coated ssDNA, BRCA2 stimulation about 2-fold lower than with tailed DNA, label: 5'-32P (EMSA), single-stranded DNA): active

CTGCTTTATCAAGATAATTTTTCGACTCATCAGAAATATCCGTTTCCTATATTTATTCCTATTATGTTTTATTCATTTACTTATTCTTTATGTTCATTTTTTATATCCTTTACTTTATTTTCTCTGTTTATTCATTTACTTATTTTGTATTATCCTTATCTTATTTA / CGGATATTTCTGATGAGTCGAAAAATTATCTTGATAAAGCAG [3' tailed DNA (RJ-167-mer/RJ-PHIX-42-1)]
activity on this sequence (RPA (Homo sapiens); RPA precoating of tailed DNA severely impairs RAD51 strand exchange, label: 5'-32P on 167-mer (EMSA)): active

From patent US20130203116
